# Source: the supplement of paper PMC7666118
# Amino acid sequences for entries named in this document (tags omitted). A change or cut given only in a name is not applied to a line headed by its entry.
# UniProt O43237, whole entry: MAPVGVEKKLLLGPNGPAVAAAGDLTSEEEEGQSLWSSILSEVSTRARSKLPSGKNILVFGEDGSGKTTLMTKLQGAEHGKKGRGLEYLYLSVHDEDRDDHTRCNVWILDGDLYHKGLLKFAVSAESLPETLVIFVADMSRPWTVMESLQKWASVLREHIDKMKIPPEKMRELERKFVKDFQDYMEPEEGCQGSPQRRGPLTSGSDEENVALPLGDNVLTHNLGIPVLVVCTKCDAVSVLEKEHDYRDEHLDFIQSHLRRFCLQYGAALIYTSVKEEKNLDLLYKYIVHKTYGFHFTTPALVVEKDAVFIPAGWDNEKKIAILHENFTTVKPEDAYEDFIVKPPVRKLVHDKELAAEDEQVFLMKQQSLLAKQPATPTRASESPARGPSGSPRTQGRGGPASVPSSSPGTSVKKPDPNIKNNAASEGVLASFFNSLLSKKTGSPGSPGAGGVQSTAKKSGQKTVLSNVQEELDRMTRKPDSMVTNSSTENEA
# UniProt Q9Y4E1, whole entry: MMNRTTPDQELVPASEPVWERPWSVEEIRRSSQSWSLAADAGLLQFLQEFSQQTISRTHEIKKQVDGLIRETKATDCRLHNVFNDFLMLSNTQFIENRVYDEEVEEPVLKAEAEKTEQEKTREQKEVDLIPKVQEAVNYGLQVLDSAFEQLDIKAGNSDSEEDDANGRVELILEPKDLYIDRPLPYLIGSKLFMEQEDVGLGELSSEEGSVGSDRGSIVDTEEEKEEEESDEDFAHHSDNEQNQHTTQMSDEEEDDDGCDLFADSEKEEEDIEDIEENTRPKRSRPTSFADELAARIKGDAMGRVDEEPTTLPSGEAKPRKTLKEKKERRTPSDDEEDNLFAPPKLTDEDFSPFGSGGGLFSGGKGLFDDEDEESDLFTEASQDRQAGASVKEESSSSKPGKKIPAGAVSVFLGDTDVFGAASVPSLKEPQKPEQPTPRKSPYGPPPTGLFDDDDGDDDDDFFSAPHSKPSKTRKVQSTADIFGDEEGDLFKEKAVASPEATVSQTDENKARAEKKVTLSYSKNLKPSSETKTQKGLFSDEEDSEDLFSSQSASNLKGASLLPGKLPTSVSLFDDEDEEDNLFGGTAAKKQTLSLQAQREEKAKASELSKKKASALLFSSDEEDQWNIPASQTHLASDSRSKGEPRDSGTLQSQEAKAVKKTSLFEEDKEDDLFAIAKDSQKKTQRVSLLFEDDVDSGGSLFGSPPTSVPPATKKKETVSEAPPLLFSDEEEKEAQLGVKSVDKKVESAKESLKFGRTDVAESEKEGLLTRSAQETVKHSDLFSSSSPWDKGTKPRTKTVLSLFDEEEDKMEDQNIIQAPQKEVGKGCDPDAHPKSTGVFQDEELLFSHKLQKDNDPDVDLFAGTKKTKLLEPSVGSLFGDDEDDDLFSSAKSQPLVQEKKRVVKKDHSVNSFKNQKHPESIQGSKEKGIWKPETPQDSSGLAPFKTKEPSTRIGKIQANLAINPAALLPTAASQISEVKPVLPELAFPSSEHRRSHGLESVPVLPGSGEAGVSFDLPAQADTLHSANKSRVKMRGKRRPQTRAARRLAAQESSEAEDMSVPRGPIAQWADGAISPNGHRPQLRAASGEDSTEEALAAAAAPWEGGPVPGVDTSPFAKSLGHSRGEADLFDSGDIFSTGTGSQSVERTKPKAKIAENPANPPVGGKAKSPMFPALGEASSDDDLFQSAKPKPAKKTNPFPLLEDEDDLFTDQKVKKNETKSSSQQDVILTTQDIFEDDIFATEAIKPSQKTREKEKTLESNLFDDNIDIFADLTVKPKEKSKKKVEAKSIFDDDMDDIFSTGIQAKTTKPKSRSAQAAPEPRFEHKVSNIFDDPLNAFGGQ
# UniProt O00716: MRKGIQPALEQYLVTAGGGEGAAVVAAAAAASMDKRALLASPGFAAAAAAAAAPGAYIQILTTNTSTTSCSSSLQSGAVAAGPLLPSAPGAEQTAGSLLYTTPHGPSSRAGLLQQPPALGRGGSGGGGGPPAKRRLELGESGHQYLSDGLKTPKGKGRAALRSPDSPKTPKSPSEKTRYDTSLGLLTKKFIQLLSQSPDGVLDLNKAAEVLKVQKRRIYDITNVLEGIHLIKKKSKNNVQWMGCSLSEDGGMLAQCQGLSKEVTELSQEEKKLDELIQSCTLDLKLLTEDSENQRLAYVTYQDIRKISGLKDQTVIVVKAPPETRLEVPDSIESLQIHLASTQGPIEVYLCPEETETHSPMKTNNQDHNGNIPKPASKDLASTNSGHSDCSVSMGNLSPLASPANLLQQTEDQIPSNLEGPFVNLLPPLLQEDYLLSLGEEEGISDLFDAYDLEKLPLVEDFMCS
# UniProt P19525: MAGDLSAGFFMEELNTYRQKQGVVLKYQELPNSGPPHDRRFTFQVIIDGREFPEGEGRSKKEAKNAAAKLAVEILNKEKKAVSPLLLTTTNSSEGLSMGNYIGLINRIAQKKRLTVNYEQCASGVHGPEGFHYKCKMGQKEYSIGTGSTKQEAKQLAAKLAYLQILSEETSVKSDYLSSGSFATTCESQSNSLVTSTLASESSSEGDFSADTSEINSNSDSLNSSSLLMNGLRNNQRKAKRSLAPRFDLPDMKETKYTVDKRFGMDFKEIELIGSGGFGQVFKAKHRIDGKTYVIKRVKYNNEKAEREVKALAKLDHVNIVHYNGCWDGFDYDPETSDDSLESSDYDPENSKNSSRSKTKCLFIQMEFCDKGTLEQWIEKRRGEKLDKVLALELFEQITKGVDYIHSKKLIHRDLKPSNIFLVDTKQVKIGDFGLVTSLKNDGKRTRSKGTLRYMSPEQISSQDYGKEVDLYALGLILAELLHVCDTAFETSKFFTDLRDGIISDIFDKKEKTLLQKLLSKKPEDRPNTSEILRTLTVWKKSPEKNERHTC
# UniProt Q9NV70: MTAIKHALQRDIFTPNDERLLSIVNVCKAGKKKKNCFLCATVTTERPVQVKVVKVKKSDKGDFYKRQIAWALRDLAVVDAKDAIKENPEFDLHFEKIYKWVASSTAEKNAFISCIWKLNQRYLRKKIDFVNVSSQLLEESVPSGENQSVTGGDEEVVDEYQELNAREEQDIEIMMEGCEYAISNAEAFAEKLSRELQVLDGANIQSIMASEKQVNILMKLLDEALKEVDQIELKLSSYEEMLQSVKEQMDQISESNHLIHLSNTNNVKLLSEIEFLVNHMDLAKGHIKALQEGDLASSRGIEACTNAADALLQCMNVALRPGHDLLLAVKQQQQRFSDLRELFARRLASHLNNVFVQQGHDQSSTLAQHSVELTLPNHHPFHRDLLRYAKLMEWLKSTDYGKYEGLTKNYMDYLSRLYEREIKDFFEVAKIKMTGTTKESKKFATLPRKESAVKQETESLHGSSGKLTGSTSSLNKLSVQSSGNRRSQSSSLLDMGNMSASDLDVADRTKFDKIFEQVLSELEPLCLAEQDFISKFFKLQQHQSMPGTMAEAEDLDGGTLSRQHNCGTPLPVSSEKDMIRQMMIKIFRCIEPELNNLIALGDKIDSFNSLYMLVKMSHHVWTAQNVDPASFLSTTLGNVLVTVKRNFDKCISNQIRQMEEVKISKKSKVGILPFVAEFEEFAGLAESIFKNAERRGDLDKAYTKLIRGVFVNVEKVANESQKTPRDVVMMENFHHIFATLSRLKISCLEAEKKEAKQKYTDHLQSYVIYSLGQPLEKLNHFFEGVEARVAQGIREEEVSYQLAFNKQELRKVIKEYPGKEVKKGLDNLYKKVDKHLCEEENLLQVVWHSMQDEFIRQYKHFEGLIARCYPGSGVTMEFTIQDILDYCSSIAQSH
# UniProt Q56P03: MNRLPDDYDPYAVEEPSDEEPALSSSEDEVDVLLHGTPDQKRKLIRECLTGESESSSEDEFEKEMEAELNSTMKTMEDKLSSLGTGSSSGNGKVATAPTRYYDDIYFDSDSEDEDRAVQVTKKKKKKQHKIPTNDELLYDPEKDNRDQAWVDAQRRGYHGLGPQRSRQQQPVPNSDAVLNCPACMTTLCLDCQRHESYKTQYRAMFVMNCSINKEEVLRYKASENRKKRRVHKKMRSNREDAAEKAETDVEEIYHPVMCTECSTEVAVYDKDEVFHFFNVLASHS
# UniProt Q96GY0: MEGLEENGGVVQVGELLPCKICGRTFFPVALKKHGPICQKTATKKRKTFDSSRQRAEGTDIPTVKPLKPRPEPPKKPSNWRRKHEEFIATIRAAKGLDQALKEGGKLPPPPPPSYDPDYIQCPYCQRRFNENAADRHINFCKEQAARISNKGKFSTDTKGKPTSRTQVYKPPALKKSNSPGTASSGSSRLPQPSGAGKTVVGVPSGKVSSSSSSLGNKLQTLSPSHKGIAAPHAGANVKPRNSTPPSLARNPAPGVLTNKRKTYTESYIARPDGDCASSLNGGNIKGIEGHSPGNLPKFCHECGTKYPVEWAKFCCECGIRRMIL
# UniProt Q9BQD7: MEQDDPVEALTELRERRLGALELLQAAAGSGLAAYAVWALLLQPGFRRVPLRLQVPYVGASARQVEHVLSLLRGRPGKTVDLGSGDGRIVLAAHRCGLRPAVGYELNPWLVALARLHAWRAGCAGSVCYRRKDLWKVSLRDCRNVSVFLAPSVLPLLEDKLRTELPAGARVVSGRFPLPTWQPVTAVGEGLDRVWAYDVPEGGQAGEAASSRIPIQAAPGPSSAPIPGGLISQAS
# UniProt Q9Y6G9, whole entry: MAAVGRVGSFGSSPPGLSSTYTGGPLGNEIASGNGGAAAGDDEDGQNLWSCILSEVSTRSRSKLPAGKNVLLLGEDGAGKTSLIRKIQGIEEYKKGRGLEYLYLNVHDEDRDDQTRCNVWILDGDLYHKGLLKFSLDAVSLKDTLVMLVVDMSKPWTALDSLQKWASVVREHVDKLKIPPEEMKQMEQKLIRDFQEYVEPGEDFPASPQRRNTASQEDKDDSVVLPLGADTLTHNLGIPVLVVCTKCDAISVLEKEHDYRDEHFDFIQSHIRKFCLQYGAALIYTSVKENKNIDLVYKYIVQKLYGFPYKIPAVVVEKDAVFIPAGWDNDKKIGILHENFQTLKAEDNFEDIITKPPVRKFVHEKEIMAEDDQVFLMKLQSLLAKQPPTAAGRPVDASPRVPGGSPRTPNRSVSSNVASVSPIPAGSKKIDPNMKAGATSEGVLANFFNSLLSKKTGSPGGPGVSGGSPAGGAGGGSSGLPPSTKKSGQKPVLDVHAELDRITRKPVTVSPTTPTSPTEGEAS
# UniProt Q9NZ08: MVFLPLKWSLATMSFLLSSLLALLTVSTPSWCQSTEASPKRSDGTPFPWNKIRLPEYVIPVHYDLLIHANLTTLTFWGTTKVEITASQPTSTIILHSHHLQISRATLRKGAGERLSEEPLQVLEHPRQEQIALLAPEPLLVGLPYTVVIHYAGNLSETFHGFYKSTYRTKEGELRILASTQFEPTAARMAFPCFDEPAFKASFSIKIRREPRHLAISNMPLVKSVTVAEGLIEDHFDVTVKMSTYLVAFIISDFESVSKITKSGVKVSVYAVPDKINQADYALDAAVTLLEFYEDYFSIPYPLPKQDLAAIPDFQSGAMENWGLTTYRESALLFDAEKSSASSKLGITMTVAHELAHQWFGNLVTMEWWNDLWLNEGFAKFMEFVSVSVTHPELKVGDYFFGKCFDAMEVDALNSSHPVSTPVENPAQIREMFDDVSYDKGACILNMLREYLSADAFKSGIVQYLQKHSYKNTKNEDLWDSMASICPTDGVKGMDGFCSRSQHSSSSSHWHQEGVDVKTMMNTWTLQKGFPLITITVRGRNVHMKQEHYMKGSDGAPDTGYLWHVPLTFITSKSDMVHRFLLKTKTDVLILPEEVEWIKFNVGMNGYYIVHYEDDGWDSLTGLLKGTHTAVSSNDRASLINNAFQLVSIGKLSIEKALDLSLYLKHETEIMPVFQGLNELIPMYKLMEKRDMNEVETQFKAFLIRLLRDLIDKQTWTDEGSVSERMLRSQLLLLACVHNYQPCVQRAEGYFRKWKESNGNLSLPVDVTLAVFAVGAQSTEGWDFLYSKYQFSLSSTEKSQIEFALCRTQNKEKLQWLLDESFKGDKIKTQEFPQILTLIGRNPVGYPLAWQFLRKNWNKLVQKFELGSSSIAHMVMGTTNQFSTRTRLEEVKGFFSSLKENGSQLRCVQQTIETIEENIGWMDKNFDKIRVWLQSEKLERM
# UniProt O60427: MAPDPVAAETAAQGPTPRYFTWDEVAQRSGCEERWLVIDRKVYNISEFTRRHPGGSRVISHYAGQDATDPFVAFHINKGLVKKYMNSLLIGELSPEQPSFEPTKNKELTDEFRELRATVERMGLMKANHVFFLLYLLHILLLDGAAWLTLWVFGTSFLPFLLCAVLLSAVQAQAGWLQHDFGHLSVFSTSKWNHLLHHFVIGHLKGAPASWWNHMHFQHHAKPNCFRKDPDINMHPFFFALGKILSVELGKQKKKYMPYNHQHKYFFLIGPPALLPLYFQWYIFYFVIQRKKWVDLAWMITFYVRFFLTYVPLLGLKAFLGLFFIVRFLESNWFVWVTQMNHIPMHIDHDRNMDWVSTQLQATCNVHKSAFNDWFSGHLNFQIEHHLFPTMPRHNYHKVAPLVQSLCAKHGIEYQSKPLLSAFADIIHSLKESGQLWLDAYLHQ
# UniProt P84090, whole entry, looked up: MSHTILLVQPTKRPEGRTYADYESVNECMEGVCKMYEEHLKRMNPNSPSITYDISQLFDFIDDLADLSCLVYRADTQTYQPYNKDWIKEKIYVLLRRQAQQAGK
# This is one part of the list.
# Compound: COc1ccc(Cn2ccc3cc(C)c(C(=O)NO)cc32)cc1
# Experiment: dose-dependent thermal stabilisation call (2D-TPP, DLPTP, 10% FDR) (binary (1 = stabilised)); higher = stabilised by the compound
# Settings: system: HL-60 intact cells; concentration range 0.04-10 µM
# Description: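 2D thermal proteome profiling in intact HL-60 cells treated with BRD-3811 (0, 0.04, 0.29, 2, 10 uM) for 90 min at 37 C, then heated 3 min at one of 12 temperatures (42-63.9 C). Soluble protein was quantified by TMT10 MS. The value is the DLPTP call of the paper: dose-dependent thermal stabilisation over all temperatures at 10% FDR (F-test of a dose-response against a flat model); one experiment, one call per tested protein.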
row,Target,dose-dependent thermal stabilisation call
1,ERGIC1 (UniProt Q969X5),inactive: 0
2,EEA1 (UniProt Q15075),inactive: 0
3,ETFDH (UniProt Q16134),inactive: 0
4,DYNC1LI2 (UniProt O43237),inactive: 0
5,FAM21C (UniProt Q9Y4E1),inactive: 0
6,FAM128A (UniProt Q6P582),inactive: 0
7,EXOC4 (UniProt Q96A65),inactive: 0
8,EFHD2 (UniProt Q96C19),inactive: 0
9,EIF4E (UniProt P06730),inactive: 0
10,E2F3 (UniProt O00716),inactive: 0
11,EIF3A (UniProt Q14152),inactive: 0
12,EIF2AK2 (UniProt P19525),inactive: 0
13,EIF2C1 (UniProt Q9UL18),inactive: 0
14,EXOC1 (UniProt Q9NV70),inactive: 0
15,EAPP (UniProt Q56P03),inactive: 0
16,FAM164A (UniProt Q96GY0),inactive: 0
17,ERMP1 (UniProt Q7Z2K6),inactive: 0
18,DTL (UniProt Q9NZJ0),inactive: 0
19,ERCC6L (UniProt Q2NKX8),inactive: 0
20,EMG1 (UniProt Q92979),inactive: 0

# A few values from the results shown:
# Entry for FAM164A (UniProt Q96GY0) under dose-dependent thermal stabilisation call: inactive: 0
# Entry for EIF3A (UniProt Q14152) under dose-dependent thermal stabilisation call: inactive: 0
# Entry for EEA1 (UniProt Q15075) under dose-dependent thermal stabilisation call: inactive: 0

# (listing goes on)

row,Target,dose-dependent thermal stabilisation call
1,FAM173A (UniProt Q9BQD7),inactive: 0
2,FAHD2A (UniProt Q96GK7),inactive: 0
3,EXOSC3 (UniProt Q9NQT5),inactive: 0
4,EXOC8 (UniProt Q8IYI6),inactive: 0
5,EBP (UniProt Q15125),inactive: 0
6,EIF5 (UniProt P55010),inactive: 0
7,EEF1E1 (UniProt O43324),inactive: 0
8,DYNC1LI1 (UniProt Q9Y6G9),inactive: 0
9,EIF6 (UniProt P56537),inactive: 0
10,EIF3K (UniProt Q9UBQ5),inactive: 0
11,ENPP4 (UniProt Q9Y6X5),inactive: 0
12,ERAP1 (UniProt Q9NZ08),inactive: 0
13,EIF2S3 (UniProt P41091),inactive: 0
14,EPS15 (UniProt P42566),inactive: 0
15,DR1 (UniProt Q01658),inactive: 0
16,FAM172A (UniProt Q8WUF8),inactive: 0
17,EXOSC8 (UniProt Q96B26),inactive: 0
18,EIF2B4 (UniProt Q9UI10),inactive: 0
19,FADS1 (UniProt O60427),inactive: 0
20,ERH (UniProt P84090),inactive: 0
